Test results: patent publication US20160199361A1, “Method of Inducing An Anti-Retroviral Immune Response By Counter-Acting Retro-Virus Induced Anti-Apoptosis” (RUTGERS, THE STATE UNIVERSITY OF NEW JERSEY, priority 2013, published 2016)
Some entries share one result that the patent states for a list of compounds.

What was measured:
[1] = test system: infected T-cell lines; test: Suppression of HIV-1 generation and selective induction of apoptosis in infected T-cell lines; type: cell-based
[2] = test system: HIV-1; test: Pilot re-infection of HIV-1 experienced cell cultures after drug discontinuation (p24); type: cell-based; conditions: one week after re-infection

Row | Compound | concentration required for effective suppression of HIV-1 generation and selective induction of apoptosis [1] | p24 in reinfected, previously HIV-1 experienced cultures relative to controls [2]
1 | Cc1cc(C2CCCCC2)n(O)c(=O)c1 [ciclopirox] | at least 150 μM | less than 30 % of controls
2 | Cc1c(O)c(=O)ccn1C [deferiprone, 3-hydroxy-1,2-dimethylpyridin-4(1H)-one] | – | less than 30 % of controls
